# Experimental data as given in patent publication US12180508B2, “Method of preparing in vitro-matured human intestinal organoids and use thereof” (KOREA RESEARCH INSTITUTE OF BIOSCIENCE AND BIOTECHNOLOGY, priority 2018, dated 2024).
# The chains behind the UniProt entries cited, without tags or fusion partners.
# UniProt P13569, whole entry: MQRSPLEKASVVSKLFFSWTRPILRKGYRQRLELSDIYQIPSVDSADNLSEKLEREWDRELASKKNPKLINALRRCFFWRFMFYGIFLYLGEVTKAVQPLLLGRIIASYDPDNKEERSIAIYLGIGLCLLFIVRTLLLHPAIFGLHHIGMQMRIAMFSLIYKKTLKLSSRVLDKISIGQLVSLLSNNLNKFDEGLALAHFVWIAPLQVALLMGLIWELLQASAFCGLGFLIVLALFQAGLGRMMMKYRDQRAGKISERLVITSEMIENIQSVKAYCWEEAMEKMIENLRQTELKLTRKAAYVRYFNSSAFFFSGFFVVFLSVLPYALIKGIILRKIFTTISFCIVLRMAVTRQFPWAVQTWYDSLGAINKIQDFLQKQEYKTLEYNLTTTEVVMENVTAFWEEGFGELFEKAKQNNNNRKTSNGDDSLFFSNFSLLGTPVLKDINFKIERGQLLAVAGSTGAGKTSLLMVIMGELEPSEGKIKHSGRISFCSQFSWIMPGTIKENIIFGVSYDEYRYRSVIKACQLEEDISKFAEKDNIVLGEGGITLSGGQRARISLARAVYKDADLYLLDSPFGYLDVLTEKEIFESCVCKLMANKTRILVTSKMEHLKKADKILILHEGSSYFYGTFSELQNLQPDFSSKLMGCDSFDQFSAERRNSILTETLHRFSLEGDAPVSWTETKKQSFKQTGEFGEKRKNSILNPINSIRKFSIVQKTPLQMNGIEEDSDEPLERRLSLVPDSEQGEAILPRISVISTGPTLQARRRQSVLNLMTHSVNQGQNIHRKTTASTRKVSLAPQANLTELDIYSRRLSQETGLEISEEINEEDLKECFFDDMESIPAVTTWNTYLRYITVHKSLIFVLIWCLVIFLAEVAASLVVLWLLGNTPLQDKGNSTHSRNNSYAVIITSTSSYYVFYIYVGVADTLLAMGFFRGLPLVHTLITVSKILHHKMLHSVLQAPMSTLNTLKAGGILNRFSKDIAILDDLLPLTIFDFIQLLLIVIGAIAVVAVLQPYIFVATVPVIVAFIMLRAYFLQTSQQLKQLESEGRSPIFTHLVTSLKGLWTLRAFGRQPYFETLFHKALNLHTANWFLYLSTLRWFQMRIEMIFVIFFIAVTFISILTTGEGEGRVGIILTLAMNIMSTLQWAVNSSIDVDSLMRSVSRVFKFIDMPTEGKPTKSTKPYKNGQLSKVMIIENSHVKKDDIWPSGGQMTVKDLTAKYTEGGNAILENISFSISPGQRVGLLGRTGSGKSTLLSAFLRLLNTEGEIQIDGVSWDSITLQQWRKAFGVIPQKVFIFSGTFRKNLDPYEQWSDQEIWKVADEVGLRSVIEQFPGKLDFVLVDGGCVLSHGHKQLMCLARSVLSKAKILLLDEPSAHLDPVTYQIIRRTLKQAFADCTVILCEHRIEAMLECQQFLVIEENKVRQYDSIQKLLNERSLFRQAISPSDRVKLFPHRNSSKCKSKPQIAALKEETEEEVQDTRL
# For at least one compound, name, drawing or mass did not settle the structure.
# Legend:
# hPSC-derived hIOs = test: Growth / size (surface area, budding) of hPSC-derived hIOs; type: cell-based, human; settings: with IL-2; S31-201 10 μM, Stattic 1 μM, Rapamycin 10 nM
# Protocol: To estimate the size of hIOs, surface areas of horizontal cross-sections of hIOs were measured.
# CFTR = target: T1, CFTR (Homo sapiens, UniProt P13569); test: Forskolin-induced organoid swelling assay (CFTR function); type: cell-based; settings: mature organoid group n=4, forskolin 25 uM, 120 minutes
# T1 construct: To examine the function of CFTR present in mature intestine epithelial cells in organoid models; endogenous in cells; host or cells: hPSC-derived human intestinal organoids (control, co-cultured with Jurkat T cells, or IL-2-treated)
# Protocol: To examine the function of CFTR present in mature intestine epithelial cells in organoid models, forskolin-induced organoid swelling assay was performed. Control and co-cultured or IL-2-treated hIOs (n=4) were treated with forskolin (25 uM, Merckmillopore), and then morphological observation was performed for 120 min at 20 min intervals through live imaging function of a microscope (IX83, Olympus). CFTR inhibitors (CFTRinh172, GlyH101) were co-treated, and morphological observation was performed for the same time. The size of organoids was calculated every hour, and mean values thereof were used to plot a graph.
Compound,stimulation of IL-2 on hIO growth in presence of inhibitor (hPSC-derived hIOs),forskolin response (organoid swelling) compared with the control (CFTR)
CO[C@H]1C[C@@H]2CC[C@@H](C)[C@@](O)(O2)C(=O)C(=O)N2CCCC[C@H]2C(=O)O[C@H]([C@H](C)C[C@@H]2CC[C@@H](O)[C@H](OC)C2)CC(=O)[C@H](C)/C=C(\C)[C@@H](O)[C@@H](OC)C(=O)[C@H](C)C[C@H](C)/C=C/C=C/C=C/1C [rapamycin],prevented,–
C=C[C@@]1(C)CC(=O)[C@]2(O)[C@@]3(C)[C@@H](O)CCC(C)(C)[C@@H]3[C@H](O)[C@H](OC(C)=O)[C@@]2(C)O1 [Forskolin],–,noticeable
